Laboratory results: PMC3934890
Results are given in words; binding and its absence hold for the method and conditions named. Binding seen in cells or lysates may run through a third protein. Some entries that bind do so weakly or less than the wild type.

Chains of the proteins cited; added tags and fusions are not shown.
UniProt Q04207: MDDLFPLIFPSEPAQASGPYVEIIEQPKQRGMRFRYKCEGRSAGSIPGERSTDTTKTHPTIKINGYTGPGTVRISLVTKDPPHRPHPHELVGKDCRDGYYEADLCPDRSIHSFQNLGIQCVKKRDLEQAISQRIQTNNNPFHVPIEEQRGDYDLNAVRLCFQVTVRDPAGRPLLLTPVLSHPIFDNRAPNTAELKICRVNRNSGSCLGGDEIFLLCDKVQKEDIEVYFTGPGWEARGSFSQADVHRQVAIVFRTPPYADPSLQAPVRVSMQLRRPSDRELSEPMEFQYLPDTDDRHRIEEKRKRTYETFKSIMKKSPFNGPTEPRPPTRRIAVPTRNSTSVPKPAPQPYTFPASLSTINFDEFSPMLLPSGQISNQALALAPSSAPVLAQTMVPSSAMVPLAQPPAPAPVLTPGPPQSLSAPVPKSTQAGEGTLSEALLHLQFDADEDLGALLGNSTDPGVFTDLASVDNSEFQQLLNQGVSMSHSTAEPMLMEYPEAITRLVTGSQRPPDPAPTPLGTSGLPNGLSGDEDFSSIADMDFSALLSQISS
UniProt P02340: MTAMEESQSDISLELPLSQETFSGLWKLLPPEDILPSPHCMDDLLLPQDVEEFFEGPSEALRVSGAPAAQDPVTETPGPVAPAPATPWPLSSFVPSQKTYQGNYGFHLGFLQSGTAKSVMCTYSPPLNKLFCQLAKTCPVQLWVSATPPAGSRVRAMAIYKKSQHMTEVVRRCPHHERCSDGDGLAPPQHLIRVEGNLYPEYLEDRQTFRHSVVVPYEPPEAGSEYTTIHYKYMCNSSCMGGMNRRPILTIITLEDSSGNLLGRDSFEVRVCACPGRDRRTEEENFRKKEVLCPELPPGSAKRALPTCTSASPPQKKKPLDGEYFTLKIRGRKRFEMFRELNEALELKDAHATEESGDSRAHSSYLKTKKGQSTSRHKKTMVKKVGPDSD

Target: p65, a prominent member of the NFκB family (mouse (endogenous in heart tissue)) (UniProt Q04207)
Assay: co-IP; pre-cleared nuclear extract from heart homogenate of ADR-treated mice in RIPA buffer; incubated with rabbit anti-p65 overnight at 4°C, anti-rabbit IgG beads 2 h at room temperature, 4 washes with RIPA; Western blot with mouse anti-p53, reprobed with anti-p65

binding: binds
Substance: p53 (from UniProt P02340 1-390)
